# System: M1 activated macrophages (AMOs) from Raw 254.7 murine macrophages
# Test: In vitro cytotoxicity study
# Format: cell-based
# Conditions: TI = EC50 macrophage/MIC B. cereus; EC50 = concentration causing 50% killing of macrophage after 16 h
# Description: A potential antimicrobial candidate must selectively kill pathogen cells without harming the host mammalian cells. To test the ability of SLs to effectively discriminate between bacteria and mammalian cells, a cytotoxicity assay was previously reported by our team. […] The therapeutic index (TI) is a parameter commonly used to determine potential drug selectivity. […] Generally, membrane-active agents are not considered for systemic administration directly, because of relatively low selectivity. Thus, designing suitable formulations and selecting suitable dose ranges are important in drug development.
smiles,measurement,value
COC(=O)CCCCCCC/C=C\CCCCCCC(C)OC1OC(CO)C(O)C(O)C1OC1OC(CO)C(O)C(O)C1O (stereo not shown) [SL-methyl ester],Therapeutic index (TI),>8

# — paper PMC8158775, “Structure–Activity Relationship Assessment of Sophorolipid Ester Derivatives against Model Bacteria Strains” (Molecules, 2021)
